Entries after “also recorded” stand apart in the source; their conditions may differ. Some results were stated once for a whole list of compounds, not compound by compound.
Test system: platelets
Assay: Collagen-induced in vitro platelet aggregation (rabbit PRP, transmittance)
Type: cell-based
Details: compared with indomethacin
Protocol: Collagen-induced in vitro Platelet Aggregation
It was studied whether the compounds of the present invention would inhibit platelet aggregation induced by collagen.
These compounds were each diluted with physiological saline to end concentrations of 1×10^−7M, 3×10^−7M, 1×10^−6M, 3×10^−6M, 1×10^−5M, 3×10^−5M and 1×10^−4M.
Indomethacin was used as a positive control. Indomethacin was dissolved in methanol, and then diluted with physiological saline to end concentrations of 1×10^−6M, 3×10^−6M and 1×10^−5M.
Physiological saline was used as a negative control.
The tube was centrifuged at 900 rpm for 10 minutes at room temperature to separate the supernatant (PRP, platelet rich plasma fraction). The residue was further centrifuged for 15 minutes at 2,500 rpm to obtain the supernatant (PPP, platelet poor plasma fraction).
PPP (platelet poor plasma fraction) was placed in a cuvette, and the cuvette was mounted in a 37° C. incubator for PPP of an aggregometer (Hematracer 240 12ch, manufactured by MCM). Then, 200 μl of PRP (platelet rich plasma fraction) was added into a cuvette, and the cuvette was mounted in a reactor for PRP. With stirring by a magnetic stirrer, the transmittance of PPP was corrected to T650 nm=100%, and the transmittance of PRP was corrected to T650 nm=0%, by automatic adjustment for 30 seconds.
The study substance (20 μl) at a predetermined concentration was added into the cuvette and, 30 seconds later, 20 μl (end concentration 0.2 μg/ml) of collagen (produced by MCM) was added. Subsequent changes in the transmittance were recorded for 5 minutes. When the platelets are aggregated, the transmittance increases. When aggregation peaked, the transmittance T at maximum aggregation was compared with the transmittance T0 of the negative control, and the aggregation inhibition rate was expressed as percentage using the following equation: Aggregation inhibition rate=(1−T/T0)×100
From an aggregation inhibition curve obtained, a regression equation was derived by approximation of the linear type.

Structure (SMILES)	suppression of collagen-induced platelet aggregation in vitro (in words)
CCCCC/C=C\C/C=C\CCCCCCCC(=O)NCCC1CCCN1C (stereo not drawn) [Compound 6, (9Z,12Z)-N-[2-(1-methylpyrrolidin-2-yl)ethyl]linoleamide]	suppressed platelet aggregation to practically the same degree as did indomethacin; also recorded: suppressing platelet aggregation in vitro dose-dependently as does indomethacin
CC/C=C\C/C=C\C/C=C\C/C=C\C/C=C\C/C=C\CCC(=O)NCCCC1CCCN1C (stereo not drawn) [Compound 11, (4Z,7Z,10Z,13Z,16Z,19Z)-N-[3-(1-methylpyrrolidin-2-yl)propyl]docosahexaenoamide]	suppressed platelet aggregation to practically the same degree as did indomethacin
CC/C=C\C/C=C\C/C=C\C/C=C\C/C=C\C/C=C\CCC(=O)NN1CCN(C)CC1 [Compound 1, (4Z,7Z,10Z,13Z,16Z,19Z)-N-(4-methylpiperazin-1-yl)docosahexaenoamide]	suppressed platelet aggregation to practically the same degree as did indomethacin; also recorded: suppressing platelet aggregation in vitro dose-dependently as does indomethacin
CCCCCCCC/C=C\CCCCCCCC(=O)NCCC1CCCN1C (stereo not drawn) [Compound 5, 9Z-N-[2-(1-methylpyrrolidin-2-yl)ethyl]oleamide]	suppressed platelet aggregation to practically the same degree as did indomethacin; also recorded: suppressing platelet aggregation in vitro dose-dependently as does indomethacin
CCCCCCCC(=O)NCCC1CCCN1C (stereo not drawn) [Compound 3, N-[2-(1-methylpyrrolidin-2-yl)ethyl]caprylamide]	suppressed platelet aggregation to practically the same degree as did indomethacin; also recorded: suppressing platelet aggregation in vitro dose-dependently as does indomethacin
CCCCCCCCCCCCCC(=O)NCCC1CCCN1C (stereo not drawn) [Compound 4, N-[2-(1-methylpyrrolidin-2-yl)ethyl]myristamide]	suppressed platelet aggregation to practically the same degree as did indomethacin; also recorded: suppressing platelet aggregation in vitro dose-dependently as does indomethacin
CC/C=C\C/C=C\C/C=C\CCCCCCCC(=O)NCCC1CCCN1C (stereo not drawn) [Compound 7, (9Z,12Z,15Z)-N-[2-(1-methylpyrrolidin-2-yl)ethyl]linolenamide]	suppressed platelet aggregation to practically the same degree as did indomethacin; also recorded: suppressing platelet aggregation in vitro dose-dependently as does indomethacin
CC/C=C\C/C=C\C/C=C\C/C=C\C/C=C\CCCC(=O)NCCC1CCCN1C (stereo not drawn) [Compound 8, (5Z,8Z,11Z,14Z,17Z)-N-[2-(1-methylpyrrolidin-2-yl)ethyl]eicosapentaenoamide]	suppressed platelet aggregation to practically the same degree as did indomethacin; also recorded: suppressing platelet aggregation in vitro dose-dependently as does indomethacin
CC/C=C\C/C=C\C/C=C\C/C=C\C/C=C\C/C=C\CCC(=O)NCC1CCCN1C (stereo not drawn) [Compound 9, (4Z,7Z,10Z,13Z,16Z,19Z)-N-[(1-methylpyrrolidin-2-yl)methyl]docosahexaenoamide]	suppressed platelet aggregation to practically the same degree as did indomethacin; also recorded: suppressing platelet aggregation in vitro dose-dependently as does indomethacin

From US6949553B2, “Aliphatic compounds, their synthesis method, and utilization of the same” (Maruha Corporation, priority 2001, dated 2005)
